{"source": "PubChem BioAssay AID1159578 (Peter MacCallum Cancer Centre, 2015)", "test": "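Knock-downs that alter how fast lymphatic endothelial cells migrate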 (primary screen)", "cells": "human lymphatic endothelial cells", "reagents": "siRNA pool against human genes, 40 nM", "timing": "48 h after transfection", "detection": "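Cells stained with dye and imaged after a scratch; covered wound area and nuclei counted, duplicates averaged, migration set against mock wells and turned into a robust z-score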", "scale": "migration robust z-score: higher = faster migration into the scratch; nuclei per well: higher = more cells in the well", "active means": "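Pools averaging fewer than 3300 nuclei are never called; remaining pools count as changed when migration robust z lies outside -2 to 2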", "meaning of the calls": "active = migration changed; inactive = no migration change, or too few cells", "note": "Here is an unselected part of about 18,000 reagents. About 1,030 of them (5.7%) count as active. 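Inactive calls also include pools with fewer than 3300 nuclei, whose migration was not assessed.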 Raw values vary from plate to plate and are shown uncorrected. Entries without a mark were called inactive. Further read-outs or replicates are left out here."}
{"gene":"TOX (GeneID 9760)","migration robust z-score":-0.42,"nuclei per well, duplicate mean":4679}
{"gene":"VNN1 (GeneID 8876)","migration robust z-score":-1.58,"nuclei per well, duplicate mean":5344}
{"gene":"APC2 (GeneID 10297)","migration robust z-score":-0.36,"nuclei per well, duplicate mean":5726}
{"gene":"OTX1 (GeneID 5013)","migration robust z-score":0.55,"nuclei per well, duplicate mean":5615}
{"gene":"UPK3A (GeneID 7380)","migration robust z-score":"-2.82 (active)","nuclei per well, duplicate mean":5228}
{"gene":"COX7C (GeneID 1350)","migration robust z-score":-0.21,"nuclei per well, duplicate mean":3982}
{"gene":"TBCC (GeneID 6903)","migration robust z-score":1.47,"nuclei per well, duplicate mean":5398}
{"gene":"SLC39A3 (GeneID 29985)","migration robust z-score":1.61,"nuclei per well, duplicate mean":4142}
{"gene":"FBXO36 (GeneID 130888)","migration robust z-score":-1.45,"nuclei per well, duplicate mean":5739}
{"gene":"ZNF675 (GeneID 171392)","migration robust z-score":-0.2,"nuclei per well, duplicate mean":5830}
{"gene":"GAP43 (GeneID 2596)","migration robust z-score":-0.26,"nuclei per well, duplicate mean":7037}
{"gene":"BANK1 (GeneID 55024)","migration robust z-score":-0.22,"nuclei per well, duplicate mean":7102}
{"gene":"PPP1R12B (GeneID 4660)","migration robust z-score":-0.08,"nuclei per well, duplicate mean":4045}
{"gene":"TRPS1 (GeneID 7227)","migration robust z-score":-0.96,"nuclei per well, duplicate mean":5751}
